Assay results as given in PubChem BioAssay AID504444 (National Center for Advancing Translational Sciences (NCATS), 2011).
About 7,500 (2.1%) of roughly 360,000 compounds were called active. The inconclusive results got no clear call from the source; some entries with a clear call stand among them for comparison. The call rests on the fitted dose curve; in most records, active means well fitted inhibition curve with a large enough effect; inconclusive means small, poorly fitted or top-dose-only effect, or effect the other way; inactive means flat fitted curve, though single readings scatter. A potency beside an inconclusive call is a rough fit, not a confirmed value.

assay: Nrf2 qHTS screen for inhibitors; details: A549 ARE-Fluc reporter, luciferase luminescence, 18-24 h; activity change, negative = inhibition: at 46 µM (top of the series); further: nearly all actives have a fitted effect of over 60% in size
In short: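 Nrf2 function is reported as luminescence of an ARE-controlled luciferase in A549 cells. Compounds were tested at several concentrations, and a CellTiter-Fluor read on the same wells flagged cytotoxicity.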
On the % scale 0 is the no-effect control and ±100 the full control effect; potency means the concentration at half of the fitted maximal effect.

Row | SMILES | activity change, negative = inhibition | Potency
1 | O=C(NC1CC1)c1cccc(Nc2ccc(-c3ccc4c(c3)OCCO4)nn2)c1 | inactive: -15.1% | 
2 | O=[N+]([O-])c1cc(/C=N/NC(=S)Nc2ccccc2Cl)ccc1Cl | inactive: -2.02% | 
3 | O=C(NC12CC3CC(CC(C3)C1)C2)c1ccc(-c2ccc(Br)cc2)o1 |  | inconclusive: 13 µM [activator, partial curve]
4 | COc1cccc(-c2nn(C)c3sc(C(=O)NCc4cc(OC)ccc4OC)cc23)c1 |  | inconclusive: 5.8 µM [activator, partial curve, poor fit]
5 | c1ccc(-c2csc3ncnc(NCCN4CCOCC4)c23)cc1 |  | active: 14.6 µM
6 | COc1ccc(C2CC3(CC(C)(C)NC(=S)N3)Oc3cc(O)cc(C)c32)cc1OC (configuration not stated) |  | inconclusive: 29.1 µM [falling, partial curve, poor fit]
7 | Cn1c(-c2ccccc2)nc2cnccc21 | inactive: -3.05% | 
8 | Cn1c(SCc2ccccc2)nnc1-c1ccco1 |  | inconclusive: 18.4 µM [activator, single point]
9 | COc1ccc(NC(=O)COC(=O)C2CCC2)cc1Cl | inactive: 4.24% | 
10 | O=C(c1c(F)cccc1F)N(Cc1ccccn1)C1CC1 | inactive: 5.95% | 
11 | O=C(c1cc([N+](=O)[O-])ccc1N1CCCCC1)N1CCc2ccccc21 |  | inconclusive: 4.61 µM [activator, full curve]
12 | Cc1ccc(NC(=O)COC(=O)c2cccc(N3C(=O)c4ccccc4C3=O)c2)cc1 |  | inconclusive: 16.4 µM [activator, partial curve, poor fit]
13 | C/C(=N\NC(=O)c1ccc(O)cc1)c1ccc(NC(=O)Cc2ccccc2)cc1 |  | inconclusive: 3.66 µM [activator, full curve]
14 | COC(=O)c1ccccc1NC(=O)C1=CC(c2ccc(C)cc2)=NS(=O)(=O)N1C |  | active: 18.4 µM
15 | O=S(=O)(NCc1cccc(C(F)(F)F)c1)NCc1ccccc1F |  | inconclusive: 25.9 µM [activator, single point]
16 | O=C1C2CCCN2C(=O)N1CCCCN1CCN(c2cccc(Cl)c2)CC1 (configuration not stated) |  | inconclusive: 14.6 µM [falling, partial curve, poor fit]
17 | Cn1nc(C(=O)Nc2nc(-c3ccc(F)cc3)cs2)ccc1=O |  | inconclusive: 18.4 µM [falling, single point]
18 | O=C(Nc1ccccc1)C1CCCN1/C=C/C(=O)C(F)(F)F (configuration not stated) |  | inconclusive: 0.82 µM [falling, full curve]
19 | NC(=O)c1ccccc1N/C=C/C(=O)c1ccc(Cl)cc1Cl |  | inconclusive: 0.184 µM [activator, full curve, poor fit]
20 | COC(=O)c1sccc1NC(=O)c1ccc(Br)o1 | inactive: 27.3% | 
21 | CC(=O)c1cccc(CN2CCCC(C(=O)Nc3ccc(-c4ccco4)cc3)C2)c1 (configuration not stated) |  | inconclusive: 6.51 µM [activator, partial curve, poor fit]
22 | c1ccc(Nc2ccnc(Nc3ccccc3)n2)cc1 |  | inconclusive: 20.6 µM [activator, partial curve]
23 | C=CCn1c(C)cc(-c2csc(NC)n2)c1C |  | inconclusive: 29.1 µM [falling, single point]

Rewritten with tabs: part of the list above
Row	SMILES	activity change, negative = inhibition	Potency
2	O=[N+]([O-])c1cc(/C=N/NC(=S)Nc2ccccc2Cl)ccc1Cl	inactive: -2.02%	
3	O=C(NC12CC3CC(CC(C3)C1)C2)c1ccc(-c2ccc(Br)cc2)o1		inconclusive: 13 µM [activator, partial curve]
7	Cn1c(-c2ccccc2)nc2cnccc21	inactive: -3.05%	
18	O=C(Nc1ccccc1)C1CCCN1/C=C/C(=O)C(F)(F)F (configuration not stated)		inconclusive: 0.82 µM [falling, full curve]

Later entries:

Row | SMILES | activity change, negative = inhibition | Potency
24 | CC(C)OP(=O)(c1ccc(N(C)C)cc1)C(Nc1ccccc1)c1ccccc1 (configuration not stated) |  | inconclusive: 29.1 µM [falling, single point]
25 | CCC(C)NC(=O)c1n[nH]c(=O)c2ccccc12 (configuration not stated) |  | inconclusive: 10.3 µM [falling, partial curve]
26 | CCC(C)Sc1ccc(-c2nc3ccc(C)cn3c2NC2CCCCC2)cc1 (configuration not stated) | inactive: 7.12% | 
27 | Oc1[nH]c2ccccc2c1N=NC(=S)N1CCOCC1 |  | inconclusive: 29.1 µM [falling, single point]
28 | Cc1cc(C)cc(OCc2ccc(C(=O)N3N=C(C(F)F)CC3(O)C(F)F)o2)c1 (configuration not stated) |  | inconclusive: 18.4 µM [falling, partial curve, poor fit]
29 | Cc1ccc(Nc2nnc(-c3ccccc3N)o2)cc1C |  | inconclusive: 20.6 µM [activator, partial curve]
30 | COc1ccc(Nc2c3ccccc3nc3ccccc23)cc1 | inactive: -25.5% | 
31 | CCOC(=O)c1cccc(NC(=O)/C=C/c2ccc3c(c2)OCO3)c1 |  | inconclusive: 29.1 µM [falling, single point]
32 | CCc1cc2c(NCC3CCCO3)nc(C)nc2s1 (configuration not stated) |  | inconclusive: 23.1 µM [falling, single point]
33 | O=C1Cc2cc(S(=O)(=O)N3CCN(c4ccc(Br)cc4)CC3)ccc2N1 | inactive: -15.3% [at 92.2 µM] | 
34 | N#C/C(=N/Nc1ccc(OC(F)(F)F)cc1)C(N)=S |  | inconclusive: 20.6 µM [falling, single point]
35 | Cc1ccc2nsnc2c1S(=O)(=O)NCCc1c(C)[nH]c2ccc(F)cc12 |  | inconclusive: 16.4 µM [falling, partial curve]
36 | Cc1cccc(Nc2n[nH]c(C)c2[N+](=O)[O-])c1 |  | inconclusive: 2.06 µM [activator, partial curve, poor fit]
37 | COc1ccc(Nc2nc(C(=O)N(CCO)Cc3ccccc3)cs2)cc1 |  | inconclusive: 29.1 µM [falling, partial curve, poor fit]
38 | Cc1ccc(S(=O)(=O)N2CCN(CC(=O)N3CCCC3)CC2)c(C)c1 | inactive: 6.82% | 
39 | CCOC(=O)Cc1csc(NC(=O)CC(C)(C)C)n1 |  | inconclusive: 4.11 µM [activator, single point]
40 | COc1ccc(S(=O)(=O)N2CCCN(CC(=O)Nc3ccc(OC)cc3OC)CC2)cc1 |  | inconclusive: 9.2 µM [falling, partial curve]
41 | Cc1cc(=O)n2ccsc2n1 |  | inconclusive: 0.206 µM [activator, full curve, poor fit]
42 | Cc1cc(C(=O)Nc2ccc(Br)cc2)cs1 |  | inconclusive: 1.64 µM [activator, full curve]
43 | O=c1oc2ccccc2nc1/C=C(\O)c1ccc(Br)cc1 |  | inconclusive: 20.6 µM [falling, single point]
44 | O=C(O)c1ccccc1/C=N/Nc1ccc(S(=O)(=O)Nc2ccc(Cl)cc2)cc1[N+](=O)[O-] | inactive: -5.39% | 
45 | C[n+]1c2n(c3ccccc31)N=C(c1cc(C(C)(C)C)c(O)c(C(C)(C)C)c1)CS2 |  | active: 18.4 µM
46 | N/C(=N\c1nc2ccccc2o1)NC(=O)c1cccc(Cl)c1 |  | inconclusive: 14.6 µM [falling, single point]

Reprinted at random: two compounds from above
Row | SMILES | activity change, negative = inhibition | Potency
27 | Oc1[nH]c2ccccc2c1N=NC(=S)N1CCOCC1 |  | inconclusive: 29.1 µM [falling, single point]
44 | O=C(O)c1ccccc1/C=N/Nc1ccc(S(=O)(=O)Nc2ccc(Cl)cc2)cc1[N+](=O)[O-] | inactive: -5.39% | 

Following part.

Row | SMILES | activity change, negative = inhibition | Potency
47 | CC(C)(C)n1ncc2c(=O)n(CC(=O)NCc3ccc(F)cc3)cnc21 |  | inconclusive: 0.92 µM [activator, partial curve]
48 | O=C(C[C@H]1C[C@H](C(=O)N2CCOCC2)[C@@]2(CCC3CCCC3)c3[nH]c4cc(-c5ccco5)ccc4c3CCN2C1=O)NCC12CC3CC(CC(C3)C1)C2 |  | inconclusive: 20.6 µM [falling, partial curve, poor fit]
49 | CC(C)c1ccc(C2CC(=O)N3CN(Cc4ccco4)CSC3=C2C#N)cc1 (configuration not stated) |  | inconclusive: 32.6 µM [falling, single point]
50 | CCOC(=O)c1c(C)[nH]c(C)c1S(=O)(=O)N1CCCC(C(=O)NCc2cccc(OC)c2)C1 (configuration not stated) |  | inconclusive: 2.91 µM [activator, partial curve]
51 | CCOC(=O)C1=C(C)NC(C)=C(C(=O)OCC)C1C(=O)OCC(=O)NC1CCCCC1 |  | inconclusive: 14.6 µM [falling, partial curve, poor fit]
52 | Cc1cc(C(=O)N2CCN(c3cccc(C)c3C)CC2)c2c(C)nn(-c3ccccc3)c2n1 |  | inconclusive: 29.1 µM [falling, single point]
53 | CCCCN(CC(O)COc1cccc(C)c1)CC(O)COc1cccc(C)c1 (configuration not stated) |  | inconclusive: 23.1 µM [falling, single point]
54 | COc1ccc(C(NC(=O)c2cc(OC)ccc2OC)c2ccccc2)cc1 (configuration not stated) |  | inconclusive: 18.4 µM [activator, partial curve]
55 | COc1cc(OC)c(C2Nc3cccc4cccc(c34)N2)c(OC)c1 |  | inconclusive: 23.1 µM [falling, single point]
56 | CSC1=C(C#N)C2(CCCCC2)C(C(=O)Nc2ccccc2)=C(C)N1 |  | inconclusive: 23.1 µM [falling, single point]
57 | COc1ccccc1NC(=O)N(CCCN1CCOCC1)Cc1cc2cc3c(cc2[nH]c1=O)OCO3 | inactive: 3.82% | 
58 | CCOC(=O)c1sc(NC(=O)C2c3ccccc3Oc3ccccc32)c(C#N)c1C |  | inconclusive: 6.51 µM [falling, single point]
59 | Cc1ccc(OCCNC(=O)c2cccc(Oc3ccc(C(F)(F)F)cc3[N+](=O)[O-])c2)cc1 |  | inconclusive: 29.1 µM [falling, single point]
60 | CCCc1cc(C(=O)N2CCCC(Nc3ccc(C)c(C)c3)C2)n(C)n1 (configuration not stated) | inactive: 5.83% | 
61 | CCCCNC(=S)N1CCn2cccc2C1c1ccccc1 (configuration not stated) |  | inconclusive: 25.9 µM [falling, single point]
62 | CCOC(=O)c1ccc(N2C(=O)C3CC=CCC3C2=O)cc1 (configuration not stated) | inactive: 10.5% | 
63 | Cn1c(=S)c2[nH]c(SCc3cccnc3)nc2n(C)c1=O | inactive: -17.5% | 
64 | CC(=O)c1sc(NC(=O)c2oc3ccc(F)cc3c2C)nc1C |  | inconclusive: 7.31 µM [activator, partial curve]
65 | Cc1ccc(NCC(=O)Nc2cccc(S(=O)(=O)N(C)C)c2)cc1S(=O)(=O)N1CCCCCC1 |  | active: 8.2 µM
66 | CCn1c(-c2cccn(Cc3ccc(Cl)cc3Cl)c2=O)n[nH]c1=S |  | inconclusive: 25.9 µM [falling, single point]
67 | COC(=O)c1cccc(S(=O)(=O)N2CCC(c3nc4ccccc4o3)CC2)c1 |  | inconclusive: 0.58 µM [falling, partial curve, poor fit]
